Results on 54 sequences are retold here after article PMC7819943, “Rice protein-binding microarrays: a tool to detect cis-acting elements near promoter regions in rice”.

The other results are listed elsewhere or left out.

For the experiment, the target named is T1, OsSMF1 (Oryza sativa, UniProt Q6ZLB0 1-436).
T1 sequence: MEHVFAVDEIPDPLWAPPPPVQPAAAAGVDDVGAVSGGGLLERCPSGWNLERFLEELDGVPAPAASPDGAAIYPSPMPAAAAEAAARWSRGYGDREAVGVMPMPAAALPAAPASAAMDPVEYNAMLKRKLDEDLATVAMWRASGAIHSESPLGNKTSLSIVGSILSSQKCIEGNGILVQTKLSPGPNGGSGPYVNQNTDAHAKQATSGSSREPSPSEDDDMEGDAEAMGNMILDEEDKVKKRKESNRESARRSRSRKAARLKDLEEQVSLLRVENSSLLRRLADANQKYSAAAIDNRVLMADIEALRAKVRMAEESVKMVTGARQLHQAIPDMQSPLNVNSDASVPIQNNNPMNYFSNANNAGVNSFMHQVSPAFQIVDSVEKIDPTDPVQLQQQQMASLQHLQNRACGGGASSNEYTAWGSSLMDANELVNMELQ
The experiment is described as follows: protein-binding microarray (RPBM); PBS, 2% BSA, 51.3 ng/ul salmon testes DNA, 50 uM zinc acetate, 200 nM TF, 25 C, 1 h; high values mean tight binding. As to conditions: protein: recombinant; tags: N-terminal polyhistidine and DsRed monomer fusion (pET32a); chain copies: 2; label: CyDye5-dUTP incorporated in the synthesized complementary strand; 3' TTTTT single-stranded linker to array surface; dsDNA, one strand shown. The method in brief: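 Binding signal is reported as fluorescence intensity per feature (arbitrary units) from an Axon 4000B scanner. Incubation used 200 nM of each Ni–NTA-purified, N-terminally polyhistidine- and DsRed-fused transcription factor from E. coli BL21-CodonPlus on a double-stranded custom Agilent array for 1 h at 25 °C, with 50 µM zinc acetate in the buffer, followed by washing.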
As to “GAGTTGTCAAGGGATGTCATCCCGACGTCAACACGATGGCCGGAGTCACCTAGTGCAG”, the binding signal is 4620 fluorescence intensity (a.u.).

For “GACAGCTCAACGGAGGTGGTATCCTACGACGATGACATGGCGGAGTCACCTAGTGCAG”, the binding signal is 6590 fluorescence intensity (a.u.).

“TTTTAGTTGGTGTGCACGTGTGTACACGTGAGGGCCTGTGCGGAGTCACCTAGTGCAG”: the binding signal was 7430 fluorescence intensity (a.u.).

In the case of “TGTGTCTGATTGCGGTGTGCGTGTGTCATCCGTGCAATGACGGAGTCACCTAGTGCAG”, the binding signal is 5030 fluorescence intensity (a.u.).

Take “TCTGATTGATGATGACGATGATGGCGGCTGTGCAGCTGAACGGAGTCACCTAGTGCAG”: the binding signal was 4030 fluorescence intensity (a.u.).

Turning to “TCTTGTAACTAAGCGTATTTGACTGCTGATGCGTGCAATTCGGAGTCACCTAGTGCAG”, the binding signal is 5040 fluorescence intensity (a.u.).

As for “GCCGCTCGCGCGTGCCACGTCGGATAGCTACAGTGCGCGGCGGAGTCACCTAGTGCAG”, the binding signal is 9570 fluorescence intensity (a.u.).

Consider “TCCCTCTATTTTGCGTCACTAATATGTGGGTCCTTTACCACGGAGTCACCTAGTGCAG”, for which the binding signal is 5320 fluorescence intensity (a.u.).

“TGATGATGGGGCCTGTCAAATCTTGCCGCCTGACACGGGGCGGAGTCACCTAGTGCAG”: the binding signal was 3200 fluorescence intensity (a.u.).

As to “CCACGTCGAGGCGTTTGTGTCCTATGCAGGGCAAGTAACTCGGAGTCACCTAGTGCAG”, the binding signal was 18900 fluorescence intensity (a.u.).

As for “AGGTTCCGGGAGGGCGGGGTGGAGCACGAGGCGGCGGTGCCGGAGTCACCTAGTGCAG”, the binding signal was 3560 fluorescence intensity (a.u.).

With “GACAAGCTCGGCACCAATCTCCACAGGAGCCGCATCAGGTCGGAGTCACCTAGTGCAG”, the binding signal is 3420 fluorescence intensity (a.u.).

As for “TGGTTACCAATTCCATCACCGAGATCACAGCAGAACTGCCCGGAGTCACCTAGTGCAG”, the binding signal is 3190 fluorescence intensity (a.u.).

Consider “GGGAGTCCGTTCCACGTAGTAGTGGACAGCACAGCGACCTCGGAGTCACCTAGTGCAG”, for which the binding signal was 3810 fluorescence intensity (a.u.).

For “TTGATAGTTTTGTCAAGGCGCTATGCGTCACGTAAACCATCGGAGTCACCTAGTGCAG”, the binding signal was 5090 fluorescence intensity (a.u.).

For the sequence “GTAGGTTTAAAATTCCAGCTAGTCAGCACCTTCTAAGTTACGGAGTCACCTAGTGCAG”, the binding signal is 5060 fluorescence intensity (a.u.).

For the sequence “GGTAGTCTGAAGCCTGTTGGTTATCCTCCTGGGAGTGTTGCGGAGTCACCTAGTGCAG”, the binding signal was 3220 fluorescence intensity (a.u.).

Turning to “GCGGCGTCGGTGCGGCGGCGGAGGCCATGGCGTTTGTTCTCGGAGTCACCTAGTGCAG”, the binding signal was 23000 fluorescence intensity (a.u.).

Take “AAACAATTACAAATGTTTAGCTGACATACAAGAACTGGACCGGAGTCACCTAGTGCAG”: the binding signal is 5700 fluorescence intensity (a.u.).

As for “GGATGATATGATTAACAGGATGTTATGCAGGCTGTAGATCCGGAGTCACCTAGTGCAG”, the binding signal is 27200 fluorescence intensity (a.u.).

As to “AGCTAGGTGACGATGGACTGACGACGACATGGATGGACAGCGGAGTCACCTAGTGCAG”, the binding signal was 3320 fluorescence intensity (a.u.).

For the sequence “GCCGCCTCCGCCTCCGCCTCGCGCCGTCGCCGCCACTTCCCGGAGTCACCTAGTGCAG”, the binding signal is 3160 fluorescence intensity (a.u.).

As to “TCGTCGTGTCGACGTCCAGGGCATCGACGACACCAATCCACGGAGTCACCTAGTGCAG”, the binding signal is 3440 fluorescence intensity (a.u.).

As to “TCGAGGTGGATTATTTTATATCATTTGACTCACTAATTTCCGGAGTCACCTAGTGCAG”, the binding signal was 5490 fluorescence intensity (a.u.).

Regarding “ATCATCATCGGCTTGTCAATCATATCATCATCGTTCATTTCGGAGTCACCTAGTGCAG”, the binding signal is 32300 fluorescence intensity (a.u.).

As to “TCACCAGCGTCCGGTCAGCCATGGCGCTGAGTGGCCTCTTCGGAGTCACCTAGTGCAG”, the binding signal was 21000 fluorescence intensity (a.u.).

Regarding “TTTTATAAATCTCGAATCGATATAAAAGAAAATTGAGGACCGGAGTCACCTAGTGCAG”, the binding signal was 24700 fluorescence intensity (a.u.).

As to “CGTTATCGCGCCCACGCTGCAGCCGATCACGCACGTGGAGCGGAGTCACCTAGTGCAG”, the binding signal is 3480 fluorescence intensity (a.u.).

As for “TCTTGATTCCTGACGTAGCAGAGACACTAGACAGACACGCCGGAGTCACCTAGTGCAG”, the binding signal is 5640 fluorescence intensity (a.u.).

On to “GCCCAGCCTGCCAACCTCACATCCCGTCATCGAGATTCGCCGGAGTCACCTAGTGCAG”, for which the binding signal was 4530 fluorescence intensity (a.u.).

As to “GGTAGGCCCAACCACGCGGCATCCCCTCCATTATGGGCCCCGGAGTCACCTAGTGCAG”, the binding signal is 4120 fluorescence intensity (a.u.).

In the case of “GAAAGCTAGAAGAGAAATTGACCTGGATTGAGTTTTGTGCCGGAGTCACCTAGTGCAG”, the binding signal is 4170 fluorescence intensity (a.u.).

In the case of “CCAATCGATCCTTGTGCTGCTGCTGCTGCTGCGCTCGACGCGGAGTCACCTAGTGCAG”, the binding signal was 4060 fluorescence intensity (a.u.).

With “TGGGTTGAAGCCCTCCCTGTTTGAGATCTCATTTTCCTTTCGGAGTCACCTAGTGCAG”, the binding signal is 9910 fluorescence intensity (a.u.).

Consider “CGGGCCCGCGCTGGATGCGGCGCATCAGGTGGGTGGTGAACGGAGTCACCTAGTGCAG”, for which the binding signal is 3150 fluorescence intensity (a.u.).

Take “TGTGAATTGCATCAACCGAAAAGTAGATATTGGAGTATTTCGGAGTCACCTAGTGCAG”: the binding signal is 65500 fluorescence intensity (a.u.).

Regarding “GGCTGACGGCTGGTGAGAAGCCACGTCAGCATTTAATTCCCGGAGTCACCTAGTGCAG”, the binding signal was 13100 fluorescence intensity (a.u.).

For the sequence “CTCCTGACTCCTCCTCGGTTCCTCTTCCTCTCGAGCCCTTCGGAGTCACCTAGTGCAG”, the binding signal is 3600 fluorescence intensity (a.u.).

Consider “GGTGAGGGCACCAAAGTGGCTATTTGTCACCTTAGCCTTGCGGAGTCACCTAGTGCAG”, for which the binding signal was 3480 fluorescence intensity (a.u.).

For the sequence “TCAAACAAGCCATGTAGGCGCCACGTTAGCCAAAACCGCTCGGAGTCACCTAGTGCAG”, the binding signal was 8620 fluorescence intensity (a.u.).

Regarding “TGCTAACTAGGATGCCACGTTAGCGAAACCACCCATATATCGGAGTCACCTAGTGCAG”, the binding signal is 5850 fluorescence intensity (a.u.).

With “TTGATAGTTCGGATTTGGGGTTTGGATCCGGGAGTTGCCGCGGAGTCACCTAGTGCAG”, the binding signal is 3270 fluorescence intensity (a.u.).

For “TGGTGGTGTAAGCCTGGACGCCGCGCCTAAATCCAGAGCGCGGAGTCACCTAGTGCAG”, the binding signal is 34600 fluorescence intensity (a.u.).

On to “ACCCTAGCCTAGTTTGCCACGACTTGGTCCCACCTGGCAGCGGAGTCACCTAGTGCAG”, for which the binding signal is 5480 fluorescence intensity (a.u.).

Consider “GGGGTGAGGTGAGGTTACCACGTCGGCGACGGTGAGGAAGCGGAGTCACCTAGTGCAG”, for which the binding signal was 6110 fluorescence intensity (a.u.).

“GAGGGAATATTCCCTATTCCGGGCCGCCCTATCCACCCTTCGGAGTCACCTAGTGCAG”: the binding signal is 3210 fluorescence intensity (a.u.).

Regarding “AGCCCGATACTTTTGTTCGACGTCGGTCGCCCGAGGCAGACGGAGTCACCTAGTGCAG”, the binding signal was 3220 fluorescence intensity (a.u.).

“TTGATTCAAATGAAGCCTAAGTATCTACTTATAGAAACTTCGGAGTCACCTAGTGCAG”: the binding signal was 17600 fluorescence intensity (a.u.).

Take “AGTCCCCTGACATGAGAGAGGTGTGCATGTCCAAAACATCCGGAGTCACCTAGTGCAG”: the binding signal is 3320 fluorescence intensity (a.u.).

Turning to “GCGGGCGCCACGCCACGCCACGCCCACCCAAACAGCTTCGCGGAGTCACCTAGTGCAG”, the binding signal was 7160 fluorescence intensity (a.u.).

Turning to “AGACATCAGATTCCTGTCAAGAGAGCGGCCGATGATGCACCGGAGTCACCTAGTGCAG”, the binding signal was 3460 fluorescence intensity (a.u.).

Take “CAACGCCGAGGTGTGGATCACCTCGTAGATATGGAGGCGGCGGAGTCACCTAGTGCAG”: the binding signal was 22800 fluorescence intensity (a.u.).

On to “TGATGTGGTGCCTACGTGGCTTGTTTGACTAGGTCTCCGTCGGAGTCACCTAGTGCAG”, for which the binding signal is 17700 fluorescence intensity (a.u.).

With “GCCACTCCCTCCCTCATCTCCCCTGTGCCGTGACGTCGTTCGGAGTCACCTAGTGCAG”, the binding signal is 3620 fluorescence intensity (a.u.).
